The chains behind the UniProt entries cited, without tags or fusion partners. Where a name states a change or a piece, a line headed by the entry shows the natural chain unless it says otherwise. Residues count along the entry.
UniProt Q96D31, whole entry: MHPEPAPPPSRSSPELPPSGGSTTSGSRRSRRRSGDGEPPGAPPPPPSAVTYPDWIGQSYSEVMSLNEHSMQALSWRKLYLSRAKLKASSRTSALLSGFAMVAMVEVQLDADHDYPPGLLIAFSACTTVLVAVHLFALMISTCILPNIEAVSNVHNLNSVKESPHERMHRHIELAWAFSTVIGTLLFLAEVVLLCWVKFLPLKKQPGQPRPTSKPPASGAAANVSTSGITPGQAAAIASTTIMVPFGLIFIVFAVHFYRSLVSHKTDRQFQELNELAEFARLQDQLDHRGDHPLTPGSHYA
UniProt P08246, 30-267 limits assumed: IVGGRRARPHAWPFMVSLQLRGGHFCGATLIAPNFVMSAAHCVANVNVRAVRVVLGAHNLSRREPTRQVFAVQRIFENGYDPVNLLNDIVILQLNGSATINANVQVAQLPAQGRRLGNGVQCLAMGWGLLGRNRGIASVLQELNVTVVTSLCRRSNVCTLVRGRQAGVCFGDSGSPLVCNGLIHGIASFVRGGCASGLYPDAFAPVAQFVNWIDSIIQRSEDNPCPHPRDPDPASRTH

In patent publication EP4314010B1, “MODIFIED PEPTIDOMIMETICS AND METHODS OF USE” (dated 2026):

How the values were obtained:
[1] = SCNN1B (βENaC) overexpressing mice, chronic pulmonary inflammation; settings: intranasal daily for 11 days
Procedure: (§1) During infection, increased SOCE and Orai1 activity leads to greater phosphorylation of Ca^2+-sensitive kinases (e.g., calcineurin) and activation of transcription factors (e.g., NFAT) leading to a pro-inflammatory response. […] The results were normalized to the baseline. Thapsigargin (Tg) at 1 µM was used as control. The inhibition of Ca^2+ release after scaffold peptide (ELD100; reference) addition is shown for comparison. […] The results were normalized to the baseline. Thapsigargin (Tg) at 1 µM was used as control. The inhibition of Ca^2+ release after ELD100 (reference) addition is shown for comparison. […] The results were normalized to the baseline. Thapsigargin (Tg) at 1 µM was used as control. The inhibition of Ca^2+ release after ELD100 (reference) addition is shown for comparison. […] The results were normalized to the baseline. Thapsigargin (Tg) at 1 µM was used as control. The inhibition of Ca^2+ release after ELD100 (reference) addition is shown for comparison. […] 1 h later, thapsigargin was added and the change in Fluo-4 fluorescence was measured. […] HEK293T cells were transfected with anti-Orai1 shRNA for 48 h and the change in Fluo4 fluorescence was measured. […] FIG. 16G panels B and C show plots showing fluorescence intensities of Orai1 in macrophages and neutrophils, respectively. *** p<0.001 different as indicated. […]

[2] = target: Orai1 extracellular peptide 1 (OP1) (Homo sapiens, UniProt Q96D31); assay: Dynamic light scattering binding to Orai1 extracellular loop peptide OP1; settings: Orai1 amino acids 106-119
Description: (§2) Endogenous Orai1/store operated Ca^2+ influx have been extensively studied in HEK293T cells, so this cell type was used to understand ELD607-Orai1 interactions. […] Thapsigargin is a SERCA pump inhibitor that prevents uptake of cytosolic Ca^2+ into the endoplasmic reticulum. Thapsigargin is commonly used to stimulate Orai1/store operated Ca^2+ influx. […] Dynamic light scattering (DLS) was used to evaluate binding of ELD607 to peptides of Orai1 extracellular loops. […] Thus, it was concluded that ELD607 interacts with Orai1.

HEK293T cells [3] = assay: Thapsigargin Fluo-4 response in HEK293T cells after peptide pre-incubation in CF sputum; settings: peptide incubated 6 h in CF sputum, then added to HEK293T cells
Procedure: as §1

Orai1 [4] = target: T1, Orai1 (Homo sapiens, UniProt Q96D31); assay: Store operated Ca2+ influx in HEK293T cells (Example 2); settings: α6 and ELD607 combined
Description: as §2

[5] = Stability in sputum (HPLC or mass spectrometry); settings: normal and CF sputum supernatant, 6 h at 37°C
Procedure: The reference ELD100 peptide was incubated overnight in cystic fibrosis (CF) patient sputum, size-fractionated and then analyzed by mass spectrometry without tryptic digest. […] ELD100 contained 16 residues. A series of peptides were generated including N-terminal, C-terminal and mid-peptide deletions to fully-optimize the peptide's size. […] Using this approach, a library was generated to fully optimize ELD100. […] The amino acid sequence modifications included alanine scanning, conservative mutations, shorter sequences and N- and C- terminus modifications (D-ala and Ser additions).
ELD607 is stable in CF sputum. CF sputum is highly proteolytic and SPLUNC1 is rapidly degraded in CF sputum. Therefore, it was tested whether ELD607 was stable in CF sputum. ELD607 was incubated with CF sputum supernatant for 6 h at 37°C, and then the reaction was halted by passing the sputum and ELD607 through a 10 kDa cut off spin column at 4°C. Using HPLC, a peak could be detected that corresponded to ELD607 (FIG. 11 panel A). […] To determine whether ELD607 remained functional after exposure to CF sputum, ELD607 that had been incubated for 6 h in either PBS or CF sputum was added to HEK293T cells. Consistent with ELD607 being stable in CF sputum, this peptide retained full functionality and was fully able to inhibit Ca^2+ influx even after pre-exposure to CF sputum (FIG. 11 panel C). […]

Orai1 [6] = target: T1, Orai1; assay: Orai1 immunocytochemistry in immune cells of ARDS/bacterial pneumonia patients; settings: paired samples of patient immune cells
Description: We then performed Orai1 immunocytochemistry on paired samples of immune cells of ARDS/bacterial pneumonia patients. Cells derived from each patient were exposed to either vehicle, ELD607, or scrambled ELD607 (FIG. 27, panels D and E).

HEK293T cells [7] = assay: Cytoplasmic Ca2+ (Fluo-4) in HEK293T cells incubated with ELD peptides; settings: 2 hours with Fluo-4 plus or minus peptide, compared to a control scrambled peptide
Procedure: (§3) HEK293T cells were plated and incubated for 2 hours with Fluo-4 plus or minus ELD peptides, with fluorescent images taken every 30 seconds for 2-6 minutes at excitation/emission wavelengths of 488/530 nm. […] Candidate peptides ELD604 (not claimed), 607 (claimed), 601 (not claimed), and 100 (reference) were tested for resistance against protease degradation, wherein the peptides were incubated with neutrophil elastase, treated with the elastase inhibitor sivelestat at various timepoints to halt ongoing reactions, and then analyzed by HPLC (FIG. 9).

[8] = Stability in ARDS patient BAL samples; settings: 8 h, 37°C
Procedure: ELD607 is active in ARDS patient immune cells. Pulmonary neutrophilic inflammation and increased lung neutrophil elastase levels are common in ARDS patient lungs. We therefore evaluated whether ELD607 remained stable in BAL samples patients with ARDS caused by bacterial pneumonia. Consistent with ELD607 showing increased resistance to neutrophil elastase (FIG. 25, panel A), ELD607 remained stable over 8 h in ARDS BAL samples at 37°C (FIG. 27, panel A).

Orai1 [9] = target: T1, Orai1; assay: Thapsigargin / Ca2+ add back assay (ER release vs SOCE) in HEK293T cells
Procedure: as §1

neutrophil elastase = neutrophil elastase (Homo sapiens, UniProt P08246); assay: Neutrophil elastase degradation, stopped with sivelestat, HPLC; settings: for resistance to neutrophil elastase degradation: incubated with neutrophil elastase
Procedure: as §3
These peptides were not degraded by trypsin. Neutrophil elastase, which is one of the major proteases in the CF lung, was also tested. ELD601 was the shortest peptides generated and lacked valines, which are a substrate for neutrophil elastase. Also made was ELD604 (not claimed), which is ELD601 flanked with D-alanines to prevent exoproteases. […] Despite lacking valines, ELD601 was still degraded by elastase.
as §2

HEK294 T cells = assay: Cytotoxicity, calcein, plate reader; settings: 100 µM, 24 h
Procedure: ELD607 is non-toxic in vitro and in vivo. To investigate potential cytotoxic effects of ELD607, HEK294 T cells were exposed to 100 µM ELD607 for 24 h. Cytotoxicity was assessed by exposing cells to calcein to label live cells and fluorescence read by multi-plate reader. […] Primary human bronchial epithelial cultures were exposed to 1 mM ELD607 or vehicle control (saline) for 24 h. Cytotoxicity was assessed by confocal microscopy using calcein and propidium iodide to label live and dead cells respectively. […] Transepithelial resistance was also measured before and after treatment as a measure of epithelial integrity. No differences were found between vehicle and ELD607 treated epithelia (FIG. 28, panel D).

[10] = test system: immune cells of ARDS/bacterial pneumonia patients; assay: Thapsigargin-induced cytosolic Ca2+ (Fluo-4) in immune cells from ARDS/bacterial pneumonia patients; settings: tracheal aspirate immune cells, 1 h exposure
Procedure: We next obtained tracheal aspirates from intubated ARDS/bacterial pneumonia patients. We immediately isolated immune cells from these samples and simultaneously loaded them with the Ca^2+ dye Fluo-4 and exposed them to vehicle, ELD607 or scrambled peptide for 1 h. Thapsigargin elevated cytosolic Ca^2+ after vehicle or scrambled peptide exposure, but not after exposure to ELD607 (FIG. 27, panel C).

[11] = Repeated intratracheal dosing safety study; settings: intratracheally 10 mg/kg daily for 7 days
Procedure: To assess the pharmacokinetics and safety of ELD607 in vivo, mice were treated intratracheally with 10 mg/kg ELD607 daily for 7 days. Mice were sacrificed at 7 days posttreatment.

[12] = House dust mite allergic lung inflammation model; settings: HDM 14 days; 0.5 mg/kg intranasally for 2 days before sacrifice
Procedure: During infection, increased SOCE and Orai1 activity leads to greater phosphorylation of Ca^2+-sensitive kinases (e.g., calcineurin) and activation of transcription factors (e.g., NFAT) leading to a pro-inflammatory response. […] The results were normalized to the baseline. Thapsigargin (Tg) at 1 µM was used as control. The inhibition of Ca^2+ release after scaffold peptide (ELD100; reference) addition is shown for comparison. […] The results were normalized to the baseline. Thapsigargin (Tg) at 1 µM was used as control. The inhibition of Ca^2+ release after ELD100 (reference) addition is shown for comparison. […] The results were normalized to the baseline. Thapsigargin (Tg) at 1 µM was used as control. The inhibition of Ca^2+ release after ELD100 (reference) addition is shown for comparison. […] The results were normalized to the baseline. Thapsigargin (Tg) at 1 µM was used as control. The inhibition of Ca^2+ release after ELD100 (reference) addition is shown for comparison. […] Peptides were exposed to NE over time, and the reaction was stopped by addition of sivelestat. HPLC was then performed in order to determine peptide stability. […] 1 h later, thapsigargin was added and the change in Fluo-4 fluorescence was measured. […] HEK293T cells were transfected with anti-Orai1 shRNA for 48 h and the change in Fluo4 fluorescence was measured. […] 100 nM thapsigargin was then added followed by extracellular Ca^2+ to differentiate ER Ca^2+ release and SOCE. n=8-12 cultures per data point. • FIGS. 15A-15D show (FIG. 15A) a schematic of a murine model of P. aeruginosa (top left panel), and bar graphs of (FIG. 15B) BAL monocytes, (FIG. 15C) BAL neutrophils, and (FIG. 15D) bacterial counts in whole lung at 24 hours quantified following experiments according to the mouse model as schematized and conditions as noted on the x-axis. • FIGS. 16A-16G show data from further P. aeruginosa infection experiments. […] FIG. 16G panels B and C show plots showing fluorescence intensities of Orai1 in macrophages and neutrophils, respectively. *** p<0.001 different as indicated. […]

| Structure (SMILES) | BAL cells in WT littermate mice [1] | interaction with OP1 (Z-average, DLS) [2] | inhibition of Ca^2+ influx after pre-exposure to CF sputum (HEK293T cells [3]) | additivity of inhibitory effects on thapsigargin-induced elevations in cytosolic Ca^2+ (Orai1 [4]) | stability in sputum (HPLC area under the curve) [5] | Orai1 levels (immunocytochemistry) (Orai1 [6]) | cytoplasmic Ca^2+ (HEK293T cells [7]) | stability in ARDS BAL samples [8] | Ca^2+ homeostasis after shRNA knockdown of Orai1 (Orai1 [9]; HEK293T cells transfected with anti-Orai1 shRNA) | thapsigargin-stimulated Ca^2+ release from the ER (Orai1 [9]; absence of extracellular Ca^2+) | stability after exposure to human neutrophil elastase relative to α6 (neutrophil elastase; compared with α6) | resistance to neutrophil elastase degradation (neutrophil elastase) | cytotoxicity (calcein fluorescence) (HEK294 T cells) | thapsigargin elevation of cytosolic Ca^2+ [10] | body weight [11] | lung histology [11] | BAL eosinophilia [12] | BAL macrophages [12] | BAL neutrophilia [12] |
| --- | --- | --- | --- | --- | --- | --- | --- | --- | --- | --- | --- | --- | --- | --- | --- | --- | --- | --- | --- |
| CC[C@H](C)[C@H](NC(=O)[C@H](CC(C)C)NC(=O)[C@H](CCSC)NC(=O)[C@H](CC(N)=O)NC(=O)[C@@H](NC(=O)[C@@H](NC(=O)[C@H](CC(=O)O)NC(=O)[C@H](Cc1c[nH]cn1)NC(=O)[C@@H](N)C(C)C)[C@@H](C)CC)C(C)C)C(=O)N[C@@H](CCCNC(=N)N)C(=O)NCC(=O)O | no effect on WT mice | significant interactions | retained full functionality | not additive | Neither normal nor CF sputum diminished the area under the curve | significant reduction in Orai 1 levels | reduced cytoplasmic calcium levels | remained stable over 8 h | no longer able to affect Ca^2+ homeostasis | no effect | four times more stable | significant increase in stability | not significantly different to vehicle control | but not after exposure to ELD607 | did not induce any changes | did not induce any changes in lung histology | significantly reduced | increased BAL macrophages | significantly reduced BAL neutrophilia |
| CC[C@H](C)[C@H](NC(=O)[C@H](CC(C)C)NC(=O)[C@H](CCSC)NC(=O)[C@H](CC(N)=O)NC(=O)[C@@H](NC(=O)[C@H](CC(=O)O)NC(=O)[C@@H](N)Cc1c[nH]cn1)[C@@H](C)CC)C(=O)N[C@@H](Cc1c[nH]cn1)C(=O)NCC(=O)O | – | – | – | – | – | – | – | – | – | – | – | still degraded by elastase | – | – | – | – | – | – | – |

The structures given here were assigned with low confidence; some may be wrong.
